Source: PubChem BioAssay AID1259254 (NCATS, 2017)
This is a random part of about 59,000 deposited reagents. About 1,550 of them (2.6%) count as active. 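G2 share is only a proxy for re-replication; each gene was hit by three separate siRNAs, and active genes were retested.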 Raw values vary from plate to plate and are shown uncorrected. The numbers tell different reagents against one gene apart. Reagent sequences are not shown. The record does not give: the amount of reagent.

Aim: 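Finding genes that stop cells copying their DNA twice in one cycle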 (primary screen)
System: human HCT116 colorectal cancer cells
Reagents: single siRNA against human genes
Duration: 3 days
Measurement: 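Imaged Hoechst DNA stain sorts each cell into a cycle phase by DNA amount; per plate, G2 fraction set to 0% for non-targeting and 100% for GMNN siRNA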
Reading the numbers: G2 robust z-score and G2 cells, % of GMNN control: higher = more G2 cells, more excess DNA replication; raw share of cells in G2: higher = larger share of cells with G2 DNA content
Call rule: 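An siRNA counts as active if its G2 robust z-score lies at least 5 MADs above the screen median; here such calls match roughly 38% of GMNN control or more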

gene knocked down	reagent no.	G2 robust z-score	G2 cells, % of GMNN control	raw share of cells in G2 (%)	Outcome
LERFS	1	-0.76	-2.38	2.95	inactive
LERFS	2	-0.531	-0.772	3.21	inactive
LERFS	3	-0.43	-0.0598	4.77	inactive
SLC43A2	1	-0.873	-3.17	3.6	inactive
SLC43A2	2	1.03	10.2	10.4	inactive
SLC43A2	3	-0.469	-0.329	4.36	inactive
AGMAT	1	-0.615	-1.36	3.7	inactive
AGMAT	2	0.0451	3.28	6	inactive
AGMAT	3	0.309	5.14	7.57	inactive
OR2A5	1	-0.398	0.169	4.86	inactive
OR2A5	2	-1.28	-6.01	1.62	inactive
OR2A5	3	2.27	19	11	inactive
BCL10-AS1	1	1.13	10.9	7.27	inactive
BCL10-AS1	2	0.492	6.43	5.08	inactive
BCL10-AS1	3	-0.249	1.22	4.24	inactive
DIO1	1	0.518	6.61	7.32	inactive
DIO1	2	-1.44	-7.16	2.38	inactive
DIO1	3	-0.277	1.02	4.45	inactive
YBX1P6	1	3.54	27.9	13.9	inactive
YBX1P6	2	-0.613	-1.34	2.98	inactive
YBX1P6	3	0.365	5.54	7.09	inactive
SHLD2	1	1.14	11	7.53	inactive
SHLD2	2	-0.758	-2.36	3.28	inactive
SHLD2	3	1.08	10.6	6.69	inactive

Sorted by “raw share of cells in G2 (%)” (high to low): some entries from above
gene knocked down	reagent no.	G2 robust z-score	G2 cells, % of GMNN control	raw share of cells in G2 (%)	Outcome
YBX1P6	1	3.54	27.9	13.9	inactive
OR2A5	3	2.27	19	11	inactive
DIO1	1	0.518	6.61	7.32	inactive
BCL10-AS1	1	1.13	10.9	7.27	inactive
BCL10-AS1	2	0.492	6.43	5.08	inactive
OR2A5	1	-0.398	0.169	4.86	inactive
DIO1	3	-0.277	1.02	4.45	inactive
BCL10-AS1	3	-0.249	1.22	4.24	inactive
DIO1	2	-1.44	-7.16	2.38	inactive
OR2A5	2	-1.28	-6.01	1.62	inactive

Next entries follow.
gene knocked down	reagent no.	G2 robust z-score	G2 cells, % of GMNN control	raw share of cells in G2 (%)	Outcome
LGALS16	1	3.75	29.3	13.7	inactive
LGALS16	2	-0.962	-3.8	1.74	inactive
LGALS16	3	0.375	5.6	5.02	inactive
TMEM217	1	-0.777	-2.5	2.67	inactive
TMEM217	2	0.539	6.76	5.44	inactive
TMEM217	3	-0.281	0.989	3.51	inactive
METAP2	1	2.31	19.2	12.3	inactive
METAP2	2	0.0702	3.46	6.13	inactive
METAP2	3	-0.61	-1.33	3.42	inactive
HEYL	1	-0.93	-3.58	2.82	inactive
HEYL	2	0.606	7.23	9.45	inactive
HEYL	3	-1.2	-5.48	2.37	inactive
ALMS1	1	1.06	10.4	9.75	inactive
ALMS1	2	-0.384	0.265	4	inactive
ALMS1	3	-0.271	1.06	3.72	inactive
FIP1L1	1	-0.523	-0.713	3.87	inactive
FIP1L1	2	-1.16	-5.21	1.91	inactive
FIP1L1	3	-0.737	-2.22	1.73	inactive
BEND3	1	-0.918	-3.49	2.97	inactive
BEND3	2	0.749	8.24	8.4	inactive
BEND3	3	-0.79	-2.59	2.21	inactive
BTBD6	1	-0.121	2.12	4.98	inactive
BTBD6	2	-0.703	-1.98	2.38	inactive
BTBD6	3	4.3	33.2	13.5	inactive
BLID	1	-0.462	-0.282	3.71	inactive
BLID	2	1.59	14.2	9.14	inactive
BLID	3	3.05	24.4	14.9	inactive
PPP2R5B	1	1.96	16.8	10.2	inactive
PPP2R5B	2	0.339	5.35	5.92	inactive
PPP2R5B	3	1.31	12.2	7.16	inactive
IL10	1	2.48	20.4	13.5	inactive
IL10	2	0.485	6.38	6.54	inactive
IL10	3	-0.853	-3.03	3.94	inactive
OR2W1	1	-0.794	-2.62	3.43	inactive
OR2W1	2	1.68	14.8	10.4	inactive
OR2W1	3	-0.234	1.32	3.76	inactive
ZNF77	1	-0.153	1.89	3.46	inactive
ZNF77	2	-0.371	0.357	6.07	inactive
ZNF77	3	0.0683	3.45	4.72	inactive
REXO4	1	5.81	43.8	22.6	active
REXO4	2	-0.197	1.58	5.01	inactive
REXO4	3	3.62	28.4	18.9	inactive
PITPNM2	1	-0.544	-0.861	4.04	inactive
PITPNM2	2	0.0371	3.23	5.4	inactive
PITPNM2	3	-0.526	-0.73	5.34	inactive
